Results are given in words; binding and its absence hold for the method and conditions named. In cells and extracts the contact can be indirect. Some entries that bind do so weakly or less than the wild type.

Chains of the proteins cited; added tags and fusions are not shown. Lines headed by an entry give the natural chain unless they say otherwise; changes in a name come on top.
UniProt P03372: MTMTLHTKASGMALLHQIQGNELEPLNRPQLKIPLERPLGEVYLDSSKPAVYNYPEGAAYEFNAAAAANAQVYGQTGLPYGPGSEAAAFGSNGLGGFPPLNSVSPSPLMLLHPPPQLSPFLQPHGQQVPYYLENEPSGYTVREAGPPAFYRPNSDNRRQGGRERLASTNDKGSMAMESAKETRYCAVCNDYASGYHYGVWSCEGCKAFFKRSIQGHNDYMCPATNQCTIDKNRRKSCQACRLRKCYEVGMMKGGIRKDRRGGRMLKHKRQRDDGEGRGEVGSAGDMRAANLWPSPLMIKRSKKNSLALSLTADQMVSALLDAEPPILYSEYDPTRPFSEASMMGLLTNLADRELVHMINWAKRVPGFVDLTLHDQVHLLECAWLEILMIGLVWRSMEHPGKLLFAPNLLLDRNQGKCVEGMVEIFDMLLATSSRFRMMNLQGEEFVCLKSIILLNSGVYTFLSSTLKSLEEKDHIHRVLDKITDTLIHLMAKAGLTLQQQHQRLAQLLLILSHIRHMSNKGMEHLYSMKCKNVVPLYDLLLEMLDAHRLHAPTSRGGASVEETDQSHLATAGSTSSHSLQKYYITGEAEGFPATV
UniProt P21860: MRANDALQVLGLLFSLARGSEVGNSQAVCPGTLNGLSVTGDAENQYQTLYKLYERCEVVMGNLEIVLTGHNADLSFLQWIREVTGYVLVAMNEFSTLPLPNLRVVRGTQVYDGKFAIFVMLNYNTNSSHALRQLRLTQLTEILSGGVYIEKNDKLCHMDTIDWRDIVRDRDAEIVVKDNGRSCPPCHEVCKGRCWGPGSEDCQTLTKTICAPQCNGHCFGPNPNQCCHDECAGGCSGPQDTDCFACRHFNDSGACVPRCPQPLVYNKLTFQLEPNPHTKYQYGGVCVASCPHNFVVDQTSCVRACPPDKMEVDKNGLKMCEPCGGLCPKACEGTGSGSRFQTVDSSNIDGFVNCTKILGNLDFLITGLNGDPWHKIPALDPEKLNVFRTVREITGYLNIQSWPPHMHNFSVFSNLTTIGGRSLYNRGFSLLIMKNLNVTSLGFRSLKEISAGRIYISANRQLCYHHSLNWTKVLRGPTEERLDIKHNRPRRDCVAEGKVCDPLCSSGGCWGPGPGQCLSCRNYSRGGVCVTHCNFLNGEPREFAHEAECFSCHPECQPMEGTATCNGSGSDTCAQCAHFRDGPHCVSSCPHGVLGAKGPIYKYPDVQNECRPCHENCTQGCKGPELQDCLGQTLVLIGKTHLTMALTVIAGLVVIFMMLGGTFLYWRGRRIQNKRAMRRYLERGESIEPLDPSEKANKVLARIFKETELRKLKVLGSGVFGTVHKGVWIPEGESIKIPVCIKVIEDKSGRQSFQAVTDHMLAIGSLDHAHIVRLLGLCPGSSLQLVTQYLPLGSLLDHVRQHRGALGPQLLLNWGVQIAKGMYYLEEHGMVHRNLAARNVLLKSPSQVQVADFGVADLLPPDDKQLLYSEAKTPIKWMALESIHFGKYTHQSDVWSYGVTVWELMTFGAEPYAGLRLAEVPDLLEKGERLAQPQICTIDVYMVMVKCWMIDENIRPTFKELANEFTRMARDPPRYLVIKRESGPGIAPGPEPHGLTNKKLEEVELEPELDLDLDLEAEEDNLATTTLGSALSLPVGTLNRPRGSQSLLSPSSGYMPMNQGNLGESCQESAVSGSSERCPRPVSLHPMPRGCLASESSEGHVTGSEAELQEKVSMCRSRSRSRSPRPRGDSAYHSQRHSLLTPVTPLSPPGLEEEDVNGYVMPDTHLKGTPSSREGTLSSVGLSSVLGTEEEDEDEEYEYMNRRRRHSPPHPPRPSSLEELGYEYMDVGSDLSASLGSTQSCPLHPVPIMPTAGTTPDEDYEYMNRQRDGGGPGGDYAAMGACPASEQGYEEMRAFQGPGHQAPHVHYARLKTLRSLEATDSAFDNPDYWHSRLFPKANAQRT

In test [1] the target is ERa (estrogen receptor) (human) (UniProt P03372). Put plainly: co-immunoprecipitation from lysates of transfected HEK 293 cells (IP anti-HER2 trastuzumab, blot ERa; and IP anti-ERa, blot HER2).
Test [2] shares this target. Put plainly: summary of the co-immunoprecipitation experiments of Example 5.
For test [3] the target is unchanged. Put plainly: co-immunoprecipitation from lysates of transfected HEK 293 cells (IP anti-HER3, blot ERa; and IP anti-ERa, blot HER3), with and without HRG.

With “HER2 expressed in HEK 293 cells (from UniProt P04626 23-1255) (receptor)”, the binding result in test [1] and in test [2] was “binds” each time.

With “HER3 expressed in cells (from UniProt P21860 20-1342) (receptor)”, the binding entry in test [3] and in test [2] was “binds” each time.
